Test results reported in patent publication US20250195553A1, “Use of Genipin-1-B-D-Gentiobioside in Preparation of Drug” (Guizhou Bailing Group Pharmaceutical Co., Ltd., priority 2023, published 2025).
Like-named read-outs stand apart in the source and are kept apart here. At least one compound was matched to its structure with a doubt left.

How the values were obtained:
[1] = tested on: Human Coronavirus 229E (HCoV-229E); format: in vivo; details: 4 days
[2] = tested on: Human Coronavirus OC43 (HCoV-OC43); format: in vivo; details: 4 days

COC(=O)C1=CO[C@@H](O[C@@H]2O[C@H](CO[C@@H]3O[C@H](CO)[C@@H](O)[C@H](O)[C@H]3O)[C@@H](O)[C@H](O)[C@H]2O)[C@@H]2C(CO)=CC[C@H]12 [Genipin-1-β-D-gentiobioside]
Viral Load in lung tissue ([1]; 9.375 mg/ml inhalation 25 min): 7.54 ± 1.11 × 10^4 copies/ml
Viral Load in lung tissue ([1]; 18.75 mg/ml inhalation 25 min): 7.54 ± 1.05 × 10^4 copies/ml
Viral Load in lung tissue ([1]; 37.5 mg/ml inhalation 25 min): 7.86 ± 0.87 × 10^4 copies/ml
Viral Load in lung tissue ([1]; 75 mg/ml inhalation 25 min): 7.17 ± 0.73 × 10^4 copies/ml
Viral Load in lung tissue ([2]; 9.375 mg/ml inhalation 25 min): 5.76 ± 1.02 × 10^3 copies/ml
Viral Load in lung tissue ([2]; 18.75 mg/ml inhalation 25 min): 2.67 ± 0.44 × 10^3 copies/ml
Viral Load in lung tissue ([2]; 37.5 mg/ml inhalation 25 min): 2.65 ± 0.35 × 10^3 copies/ml
Viral Load in lung tissue ([2]; 75 mg/ml inhalation 25 min): 1.82 ± 0.37 × 10^3 copies/ml
